The results are deposited in PubChem (AID912; NCATS, 2007).

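A cell-based FRET test of anthrax lethal toxin entry, tracked through the 460 nm emission signal; the cell line is not named here. Each compound was tested as a concentration series from about 0.0005 to 40 µM. The number is the fitted AC50 of the 460 nm signal alone; lower values mean a more potent effect. A falling signal goes with compounds filed as inhibitors or cytotoxic, a rising one with activators or fluorescent compounds (inferred from the filed classes).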

Values are in µM. Common to all entries: measured here: 460 nm channel. This is a side read-out of the assay, for part of the compounds, not drawn at random. Potencies fitted to partial, single-point or poorly fitting curves are rough. The first word of each remark tells which way the curve ran; it can be opposite to the aim of the assay.

SMILES	AC50 (µM)	curve as filed
O=C(CCNC(=O)Cn1ccc2ccccc2c1=O)NCCCN1CCN(c2ccccc2F)CC1	5.012	falling, single point
CC1(C)CC(=O)C2=C(C1)N(c1cccc(O)c1)C1=C(C2)C(=O)CC(C)(C)C1	10	rising, partial curve
CCCn1nnc(NC(=O)c2cc(Br)ccc2OC)n1	0.03981	rising, full curve
COCCn1c(=O)c(-c2cc(F)cc(F)c2)nc2cnc(Oc3ccc(OC)cc3)nc21	0.1259	falling, single point
O=C(NCc1ccco1)c1cc2nc(-c3cccs3)cc(C(F)(F)F)n2n1	31.62	rising, single point
Cc1ccnc(NC(=O)COC(=O)C2COc3ccccc3O2)n1 (stereo not drawn)	3.162	rising, single point
COc1cccc(OC)c1OCCNC[C@@H]1CSc2ccccc2O1	31.62	falling, single point
Cc1ccc(N(CC(=O)NCc2ccncc2)S(C)(=O)=O)cc1Cl	31.62	falling, single point
CCC(C)N(CCNC(=O)CC1Oc2ccc(C)cc2NC1=O)C1CCCCC1 (stereo not drawn)	19.95	rising, single point
Cc1nc2ncnn2c(N2CCN(C(c3ccccc3)c3ccccc3)CC2)c1C	15.85	falling, single point
c1ccc(-n2c(-c3ccncc3)nnc2-c2ccco2)cc1	31.62	falling, single point
O=c1c2c3c(sc2n(CCN2CCOCC2)c(=O)n1Cc1ccco1)CCCCC3	1.259	rising, full curve
COc1cc2cc(C(c3nnnn3C3CCCC3)N3CCc4ccccc43)c(=O)[nH]c2cc1OC (stereo not drawn)	7.943	falling, partial curve
CC(C)(C)c1ccc(-c2noc(CCC(N)=O)n2)cc1	0.3981	falling, full curve, poor fit
Cc1ccc(NCc2nnc(SCC(=O)N(Cc3ccccc3)C(C)(C)C)o2)c(C)c1	31.62	falling, single point
CN(C)c1ncc2nc(-c3ccc(F)cc3)c(=O)n(C3CC3)c2n1	10	rising, partial curve
Cc1cccc(C(C)C)c1-n1nnnc1-c1ccccc1	10	falling, partial curve
CCOC(=O)CSc1nc2ccccc2c(=O)n1CCCCCC(=O)NCc1ccco1	10	rising, partial curve
O=S(=O)(Nc1nc2ccccc2nc1NCc1ccco1)c1cccs1	0.003162	falling, full curve, poor fit
CCCC(=O)c1ccc(N2CCN(C(=O)c3ccccc3Br)CC2)c(F)c1	10	falling, partial curve
COc1ccc(OC)c(NC(=O)c2cc3sccc3n2C)c1	15.85	falling, single point
Cc1sc2nc(CN3CCOCC3)nc(NS(=O)(=O)c3ccc4c(c3)OCCO4)c2c1C	10	rising, partial curve
O=C(Nc1ccccc1)c1cc([N+](=O)[O-])ccc1Cl	12.59	falling, single point
N#Cc1cccc(NC(=O)c2nc(-c3ccccc3)n(-c3ccccc3)n2)c1	12.59	falling, single point
COc1ccc(NC(=O)NCCCN2CCN(c3cc(C)ccc3C)CC2)cc1	19.95	falling, single point
CCCCn1c(NC(=O)c2ccccc2)nc2ccccc21	12.59	falling, partial curve
CCC(Oc1ccc(C)c(C)c1)C(=O)O (stereo not drawn)	2.512	falling, single point
CC1(C)Cc2ccccc2-c2nnc(-c3ccc(O)cc3)n21	0.3981	falling, partial curve
Cc1nnc(SCC(=O)c2cc(C)n(-c3ccc4c(c3)OCO4)c2C)s1	31.62	falling, single point
COc1ccc(C(=O)N2CCC3(CCCN(Cc4nccs4)C3)CC2)cc1	10	rising, partial curve, poor fit
O=C(CSc1ccc2nnc(-c3cccc(F)c3)n2n1)NCc1ccco1	0.5012	falling, full curve, poor fit
CCOc1ccc(C2=CS/C(=C(\C#N)c3nnc4n3CCCCC4)N2CC)cc1	31.62	falling, single point
O=C(CCn1nc(-c2ccccc2)c2ccccc2c1=O)N1CCN(c2ccccc2)CC1	12.59	rising, partial curve
CC(C)c1ccc(Cn2ccc3c4c(N)nc(NC5CC5)nc4ccc32)cc1	25.12	falling, partial curve
CCC(Cl)CC(Cl)C(Cl)C(Cl)C(Cl)C(C)Cl (stereo not drawn)	5.012	falling, full curve
Cn1c(SCC(=O)N2CCc3ccccc3C2)nnc1-c1cccs1	0.01995	falling, full curve
Cc1cc(N2CCN(C3CCCCC3)CC2)nc2cccc(O)c12	12.59	falling, partial curve
COc1ccc(NC(=O)Cn2nc(C(F)(F)F)c3c2CCCC3)c(OC)c1	10	falling, partial curve
CC1CN(C(=O)c2cc3c(s2)CCC3)CC(C)O1 (stereo not drawn)	5.012	rising, single point
C=CCn1c(=N)c(C(=O)NCCCOC)cc2c(=O)n3ccccc3nc21	12.59	rising, partial curve
CC(=O)Nc1nc2n(n1)C(c1ccccc1)C=C(c1ccccc1)N2 (stereo not drawn)	12.59	rising, single point
O=C(CCN1CCCC1)Nc1cccc(Br)c1	15.85	falling, single point
COc1ccc(C2C(C(C)=O)=C(C)N=c3s/c(=C\c4ccco4)c(=O)n32)c(OC)c1 (stereo not drawn)	19.95	falling, partial curve
OC1(c2ccc(Cl)cc2)CCN(Cc2c[nH]c3ccccc23)CC1	25.12	falling, partial curve, poor fit
Cc1cccc(Nc2ncc3c(n2)CC(c2ccco2)CC3=O)c1 (stereo not drawn)	31.62	rising, single point
O=C(c1ccco1)N(CCCN1CCOCC1)c1nc(-c2ccc(F)cc2)cs1	31.62	falling, single point
COc1ccc(S(=O)(=O)Cc2ccc(C(=O)N3CCC4(CC3)OCCO4)o2)cc1	10	falling, partial curve, poor fit
CCOC(=O)c1c(C)n(COCCO)c2ccc(O)cc12	31.62	rising, single point
COCCCNc1oc(-c2ccccc2OC)nc1C#N	1.259	rising, partial curve
CC1CC(C)CN(c2ncc3c(n2)CC(c2ccccc2Cl)CC3=O)C1 (stereo not drawn)	0.2512	falling, full curve
Cc1c2cc[n+](CCN3CCCCC3)cc2c(C)c2c1[nH]c1ccc(O)cc12	1	falling, single point
COc1ccc(-c2nnc(SCc3ccccc3)n2N)cc1	3.162	falling, full curve

The last 5 entries again:

SMILES,AC50 (µM),curve as filed
CCOC(=O)c1c(C)n(COCCO)c2ccc(O)cc12,31.62,"rising, single point"
COCCCNc1oc(-c2ccccc2OC)nc1C#N,1.259,"rising, partial curve"
CC1CC(C)CN(c2ncc3c(n2)CC(c2ccccc2Cl)CC3=O)C1 (stereo not drawn),0.2512,"falling, full curve"
Cc1c2cc[n+](CCN3CCCCC3)cc2c(C)c2c1[nH]c1ccc(O)cc12,1,"falling, single point"
COc1ccc(-c2nnc(SCc3ccccc3)n2N)cc1,3.162,"falling, full curve"